Article PMC4501038 (RSC advances, 2015)
Counter-ions that a name gives are not always drawn.

Test system: scopolamine-treated mice
Test: Scopolamine-induced memory impairment, passive avoidance test
Format: in vivo
Settings: scopolamine (1 mg/kg) alone

CN1[C@@H]2C[C@@H](OC(=O)[C@H](CO)c3ccccc3)C[C@H]1[C@@H]1O[C@@H]12 [scopolamine, scopolamine hydrobromide]
retention trial latency: 39.9 ± 7.8 s
